Laboratory results as given in article PMC11116816.
These are yes or no findings as the source states them, for the method shown. In cells and extracts the contact can be indirect. Some results given as binding are weak or reduced against the parent protein; the word gives no strength. Where a sequence is shown, tags or fusion partners need not be part of it.

Amino acid sequences for entries named in this document (tags omitted). Residues count along the entry.
UniProt Q99MB1, residues 26-905: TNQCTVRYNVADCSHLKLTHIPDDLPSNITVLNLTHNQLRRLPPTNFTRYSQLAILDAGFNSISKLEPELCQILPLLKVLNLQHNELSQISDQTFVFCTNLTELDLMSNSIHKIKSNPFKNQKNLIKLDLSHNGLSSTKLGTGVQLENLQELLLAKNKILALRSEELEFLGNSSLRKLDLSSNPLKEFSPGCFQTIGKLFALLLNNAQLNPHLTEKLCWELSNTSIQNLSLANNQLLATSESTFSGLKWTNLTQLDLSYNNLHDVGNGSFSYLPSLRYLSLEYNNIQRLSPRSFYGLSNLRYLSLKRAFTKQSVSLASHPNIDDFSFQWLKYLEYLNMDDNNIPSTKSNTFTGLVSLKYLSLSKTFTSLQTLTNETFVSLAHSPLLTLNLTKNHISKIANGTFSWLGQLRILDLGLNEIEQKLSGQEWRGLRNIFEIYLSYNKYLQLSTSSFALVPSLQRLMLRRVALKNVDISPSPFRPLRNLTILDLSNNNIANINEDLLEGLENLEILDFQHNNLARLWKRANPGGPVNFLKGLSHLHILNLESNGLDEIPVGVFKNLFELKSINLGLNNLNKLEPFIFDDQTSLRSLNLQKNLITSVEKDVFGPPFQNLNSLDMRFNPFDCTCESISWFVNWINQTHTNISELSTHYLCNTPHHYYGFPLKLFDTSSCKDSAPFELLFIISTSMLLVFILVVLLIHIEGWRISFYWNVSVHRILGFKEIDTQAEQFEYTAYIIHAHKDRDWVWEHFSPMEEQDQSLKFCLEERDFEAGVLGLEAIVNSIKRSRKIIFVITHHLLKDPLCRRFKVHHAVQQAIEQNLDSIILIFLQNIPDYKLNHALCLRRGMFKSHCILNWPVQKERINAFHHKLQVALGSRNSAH

T1: human UNC93B1 T93I variant with C-terminal 3xFLAG (human) (UniProt Q9H1C4)
T1 sequence: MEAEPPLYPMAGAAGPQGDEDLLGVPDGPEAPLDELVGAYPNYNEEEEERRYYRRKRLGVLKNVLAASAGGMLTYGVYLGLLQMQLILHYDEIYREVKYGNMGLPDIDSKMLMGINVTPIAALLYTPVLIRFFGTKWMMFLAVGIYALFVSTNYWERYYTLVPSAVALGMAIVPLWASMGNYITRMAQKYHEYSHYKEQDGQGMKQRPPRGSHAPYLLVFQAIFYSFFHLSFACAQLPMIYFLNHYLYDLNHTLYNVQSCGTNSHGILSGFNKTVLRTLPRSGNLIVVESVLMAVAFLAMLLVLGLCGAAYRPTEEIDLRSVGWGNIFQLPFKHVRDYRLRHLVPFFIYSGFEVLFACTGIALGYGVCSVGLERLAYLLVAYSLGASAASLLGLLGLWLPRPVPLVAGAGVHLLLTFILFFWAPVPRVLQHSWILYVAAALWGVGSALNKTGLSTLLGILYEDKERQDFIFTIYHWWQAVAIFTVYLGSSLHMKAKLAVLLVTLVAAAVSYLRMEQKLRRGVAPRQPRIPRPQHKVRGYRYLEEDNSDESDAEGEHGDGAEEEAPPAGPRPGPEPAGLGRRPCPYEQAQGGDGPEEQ

T2: human UNC93B1 wild type with C-terminal 3xFLAG (human) (UniProt Q9H1C4)
T2 sequence: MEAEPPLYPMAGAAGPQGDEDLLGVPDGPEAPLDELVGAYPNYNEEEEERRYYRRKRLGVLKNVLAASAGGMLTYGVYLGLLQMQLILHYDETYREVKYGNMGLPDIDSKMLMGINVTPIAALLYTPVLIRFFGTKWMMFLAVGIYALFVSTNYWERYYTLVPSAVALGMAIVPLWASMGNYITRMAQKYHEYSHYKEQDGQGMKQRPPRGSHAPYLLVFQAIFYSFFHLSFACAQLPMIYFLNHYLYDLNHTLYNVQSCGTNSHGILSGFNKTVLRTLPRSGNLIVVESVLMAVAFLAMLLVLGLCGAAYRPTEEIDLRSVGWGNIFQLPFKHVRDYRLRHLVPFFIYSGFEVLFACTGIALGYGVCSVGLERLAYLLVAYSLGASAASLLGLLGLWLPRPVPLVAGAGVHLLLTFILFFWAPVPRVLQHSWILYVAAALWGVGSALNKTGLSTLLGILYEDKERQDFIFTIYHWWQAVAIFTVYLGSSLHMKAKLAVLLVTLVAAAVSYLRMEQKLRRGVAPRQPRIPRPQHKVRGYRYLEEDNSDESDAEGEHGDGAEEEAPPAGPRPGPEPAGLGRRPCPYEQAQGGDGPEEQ

T3: murine TLR7-HA (mouse) (UniProt P58681)
T3 sequence: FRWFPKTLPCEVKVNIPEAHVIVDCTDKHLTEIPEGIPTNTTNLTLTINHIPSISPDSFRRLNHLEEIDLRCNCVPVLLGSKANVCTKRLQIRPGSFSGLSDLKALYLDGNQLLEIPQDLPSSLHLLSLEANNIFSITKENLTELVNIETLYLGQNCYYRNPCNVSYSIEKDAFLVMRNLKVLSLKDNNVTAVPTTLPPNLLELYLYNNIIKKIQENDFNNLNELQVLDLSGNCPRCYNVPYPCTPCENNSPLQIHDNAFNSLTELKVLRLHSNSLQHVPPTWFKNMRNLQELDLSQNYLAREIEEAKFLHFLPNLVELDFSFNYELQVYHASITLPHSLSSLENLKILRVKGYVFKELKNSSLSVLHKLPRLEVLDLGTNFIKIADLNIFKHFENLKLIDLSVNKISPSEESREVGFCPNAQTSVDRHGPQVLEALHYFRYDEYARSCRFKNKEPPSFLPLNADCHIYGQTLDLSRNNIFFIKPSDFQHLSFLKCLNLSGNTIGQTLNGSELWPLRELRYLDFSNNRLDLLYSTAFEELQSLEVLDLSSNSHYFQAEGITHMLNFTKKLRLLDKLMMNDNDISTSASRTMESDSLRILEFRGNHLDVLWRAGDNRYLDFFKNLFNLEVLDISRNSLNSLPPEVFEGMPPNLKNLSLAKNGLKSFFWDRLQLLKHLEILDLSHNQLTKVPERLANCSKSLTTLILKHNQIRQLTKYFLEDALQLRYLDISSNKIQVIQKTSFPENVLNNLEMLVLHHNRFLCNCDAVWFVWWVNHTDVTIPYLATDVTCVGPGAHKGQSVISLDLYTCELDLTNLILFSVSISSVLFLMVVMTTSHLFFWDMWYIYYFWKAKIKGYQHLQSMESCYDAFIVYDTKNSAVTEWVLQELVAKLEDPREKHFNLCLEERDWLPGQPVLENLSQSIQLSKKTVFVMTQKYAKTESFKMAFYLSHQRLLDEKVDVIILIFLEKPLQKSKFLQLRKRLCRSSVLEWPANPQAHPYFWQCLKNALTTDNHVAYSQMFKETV

T4: mouse UNC93B1 wild type with C-terminal 3xFLAG (mouse) (UniProt Q8VCW4)
T4 sequence: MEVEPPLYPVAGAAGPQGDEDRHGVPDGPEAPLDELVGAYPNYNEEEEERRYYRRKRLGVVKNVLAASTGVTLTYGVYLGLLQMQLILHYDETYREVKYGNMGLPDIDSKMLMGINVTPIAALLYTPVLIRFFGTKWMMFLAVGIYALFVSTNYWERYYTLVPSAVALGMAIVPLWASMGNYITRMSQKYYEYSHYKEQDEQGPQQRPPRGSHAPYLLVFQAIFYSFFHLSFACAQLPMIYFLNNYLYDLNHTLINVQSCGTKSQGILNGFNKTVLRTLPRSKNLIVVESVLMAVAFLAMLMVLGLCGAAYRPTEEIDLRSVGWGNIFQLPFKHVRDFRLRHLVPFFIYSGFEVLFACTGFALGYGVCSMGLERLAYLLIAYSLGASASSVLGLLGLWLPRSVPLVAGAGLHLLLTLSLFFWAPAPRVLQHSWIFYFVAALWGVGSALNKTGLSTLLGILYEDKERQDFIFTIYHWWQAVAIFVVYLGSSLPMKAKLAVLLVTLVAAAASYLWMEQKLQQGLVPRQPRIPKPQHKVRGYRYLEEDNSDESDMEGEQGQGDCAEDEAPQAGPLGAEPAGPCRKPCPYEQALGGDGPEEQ


Columns and labels:
[1] = biological target: T1, human UNC93B1 T93I variant with C-terminal 3xFLAG (human); test: co-IP; anti-Flag magnetic resin IP of UNC93B1-3xFLAG from CHAPS lysates (0.5% CHAPS, 150 mM NaCl, 40 mM HEPES, pH 7.6, 20 mM N-ethylmaleimide) of Unc93b1−/− RAW264.7 macrophages expressing the indicated variants; washed three times in lysis buffer; immunoblot of the associated protein
[2] = biological target: T2, human UNC93B1 wild type with C-terminal 3xFLAG (human); test: as above
murine TLR7-HA (mouse) = biological target: T3, murine TLR7-HA (mouse); test: co-IP; immunoprecipitation of TLR7-HA from purified phagosomes of Unc93b1−/− RAW264.7 macrophages expressing UNC93B1-3xFLAG variants; immunoblot and quantification of co-precipitated UNC93B1
[3] = biological target: T4, mouse UNC93B1 wild type with C-terminal 3xFLAG (mouse); test: co-IP; anti-Flag magnetic resin IP of UNC93B1-3xFLAG from CHAPS lysates (0.5% CHAPS, 150 mM NaCl, 40 mM HEPES, pH 7.6, 20 mM N-ethylmaleimide) of Unc93b1−/− RAW264.7 macrophages expressing the indicated variants; washed three times in lysis buffer; immunoblot of the associated protein

Molecule	binding [1]	binding [2]	binding (murine TLR7-HA (mouse))	binding [3]
murine TLR3-HA (from UniProt Q99MB1 26-905) (receptor)	binds	binds	–	–
human UNC93B1 wild type with C-terminal 3xFLAG (protein, UniProt Q9H1C4 1-597) MEAEPPLYPMAGAAGPQGDEDLLGVPDGPEAPLDELVGAYPNYNEEEEERRYYRRKRLGVLKNVLAASAGGMLTYGVYLGLLQMQLILHYDETYREVKYGNMGLPDIDSKMLMGINVTPIAALLYTPVLIRFFGTKWMMFLAVGIYALFVSTNYWERYYTLVPSAVALGMAIVPLWASMGNYITRMAQKYHEYSHYKEQDGQGMKQRPPRGSHAPYLLVFQAIFYSFFHLSFACAQLPMIYFLNHYLYDLNHTLYNVQSCGTNSHGILSGFNKTVLRTLPRSGNLIVVESVLMAVAFLAMLLVLGLCGAAYRPTEEIDLRSVGWGNIFQLPFKHVRDYRLRHLVPFFIYSGFEVLFACTGIALGYGVCSVGLERLAYLLVAYSLGASAASLLGLLGLWLPRPVPLVAGAGVHLLLTFILFFWAPVPRVLQHSWILYVAAALWGVGSALNKTGLSTLLGILYEDKERQDFIFTIYHWWQAVAIFTVYLGSSLHMKAKLAVLLVTLVAAAVSYLRMEQKLRRGVAPRQPRIPRPQHKVRGYRYLEEDNSDESDAEGEHGDGAEEEAPPAGPRPGPEPAGLGRRPCPYEQAQGGDGPEEQ	–	–	binds	–
human UNC93B1 T93I variant with C-terminal 3xFLAG (protein, UniProt Q9H1C4 1-597) MEAEPPLYPMAGAAGPQGDEDLLGVPDGPEAPLDELVGAYPNYNEEEEERRYYRRKRLGVLKNVLAASAGGMLTYGVYLGLLQMQLILHYDEIYREVKYGNMGLPDIDSKMLMGINVTPIAALLYTPVLIRFFGTKWMMFLAVGIYALFVSTNYWERYYTLVPSAVALGMAIVPLWASMGNYITRMAQKYHEYSHYKEQDGQGMKQRPPRGSHAPYLLVFQAIFYSFFHLSFACAQLPMIYFLNHYLYDLNHTLYNVQSCGTNSHGILSGFNKTVLRTLPRSGNLIVVESVLMAVAFLAMLLVLGLCGAAYRPTEEIDLRSVGWGNIFQLPFKHVRDYRLRHLVPFFIYSGFEVLFACTGIALGYGVCSVGLERLAYLLVAYSLGASAASLLGLLGLWLPRPVPLVAGAGVHLLLTFILFFWAPVPRVLQHSWILYVAAALWGVGSALNKTGLSTLLGILYEDKERQDFIFTIYHWWQAVAIFTVYLGSSLHMKAKLAVLLVTLVAAAVSYLRMEQKLRRGVAPRQPRIPRPQHKVRGYRYLEEDNSDESDAEGEHGDGAEEEAPPAGPRPGPEPAGLGRRPCPYEQAQGGDGPEEQ	–	–	binds	–
endogenous TLR7 of RAW264.7 macrophages (receptor, UniProt P58681 27-1050) FRWFPKTLPCEVKVNIPEAHVIVDCTDKHLTEIPEGIPTNTTNLTLTINHIPSISPDSFRRLNHLEEIDLRCNCVPVLLGSKANVCTKRLQIRPGSFSGLSDLKALYLDGNQLLEIPQDLPSSLHLLSLEANNIFSITKENLTELVNIETLYLGQNCYYRNPCNVSYSIEKDAFLVMRNLKVLSLKDNNVTAVPTTLPPNLLELYLYNNIIKKIQENDFNNLNELQVLDLSGNCPRCYNVPYPCTPCENNSPLQIHDNAFNSLTELKVLRLHSNSLQHVPPTWFKNMRNLQELDLSQNYLAREIEEAKFLHFLPNLVELDFSFNYELQVYHASITLPHSLSSLENLKILRVKGYVFKELKNSSLSVLHKLPRLEVLDLGTNFIKIADLNIFKHFENLKLIDLSVNKISPSEESREVGFCPNAQTSVDRHGPQVLEALHYFRYDEYARSCRFKNKEPPSFLPLNADCHIYGQTLDLSRNNIFFIKPSDFQHLSFLKCLNLSGNTIGQTLNGSELWPLRELRYLDFSNNRLDLLYSTAFEELQSLEVLDLSSNSHYFQAEGITHMLNFTKKLRLLDKLMMNDNDISTSASRTMESDSLRILEFRGNHLDVLWRAGDNRYLDFFKNLFNLEVLDISRNSLNSLPPEVFEGMPPNLKNLSLAKNGLKSFFWDRLQLLKHLEILDLSHNQLTKVPERLANCSKSLTTLILKHNQIRQLTKYFLEDALQLRYLDISSNKIQVIQKTSFPENVLNNLEMLVLHHNRFLCNCDAVWFVWWVNHTDVTIPYLATDVTCVGPGAHKGQSVISLDLYTCELDLTNLILFSVSISSVLFLMVVMTTSHLFFWDMWYIYYFWKAKIKGYQHLQSMESCYDAFIVYDTKNSAVTEWVLQELVAKLEDPREKHFNLCLEERDWLPGQPVLENLSQSIQLSKKTVFVMTQKYAKTESFKMAFYLSHQRLLDEKVDVIILIFLEKPLQKSKFLQLRKRLCRSSVLEWPANPQAHPYFWQCLKNALTTDNHVAYSQMFKETV	binds	binds	–	binds
